Source: PubChem BioAssay AID504834 (National Center for Advancing Translational Sciences (NCATS), 2011)
Out of some 320,000 compounds screened, about 22,000 (6.9%) were called active. Inconclusive results, whose numbers are uncertain, are shown with a selection of clear calls. Calls follow the shape of the dose curve; as a rule, active = well fitted inhibition curve with a large enough effect; inconclusive = small, poorly fitted or top-dose-only effect, or another doubt; inactive = no such curve, though single readings can be large or run the other way. Potencies beside an inconclusive call are fits to weak or partial responses and may not hold up.

Assay: Primary qHTS for delayed death inhibitors of the malarial parasite plastid, 96 hour incubation
Conditions: P. falciparum luciferase reporter growth; series mostly up to 28.7 µM
How it was run: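 Delayed-death screen, second-generation endpoint: infected erythrocytes, 2% hematocrit, 0.05% parasitemia final; 96 hours at 37 C, 5% CO2; luciferase detection reagent; luminescence decrease equals reduced growth.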
% is scaled to controls: 0 for no effect and ±100 for the full control effect; potency is read from the fitted curve at half-maximal effect.

Structure (SMILES)	Potency	activity change, negative = inhibition
O=C(c1ccc(OCC2CCCO2)cc1)N1CCN(c2ccccc2)CC1 (centres undefined)	inconclusive: 18.5 µM [inhibitor, single point]	–
Clc1nc(-c2cccnc2)nc2scc(-c3ccccc3)c12	active: 1.04 µM	–
CCOC(=O)c1cccc(NC(=O)c2ccc3c(c2)OCO3)c1	inactive	–
CCN1CCN(C(=S)NCCc2ccccc2)CC1	inactive	–
COC(=O)c1c(-c2cccnc2)csc1NC(=O)c1ccc2c(c1)OCO2	inconclusive: 10.4 µM [inhibitor, single point]	–
CN(C)c1ccc(S(=O)(=O)NCC(=O)OCC(=O)NC(=O)C2CCCCC2)cc1[N+](=O)[O-]	inactive	–
Cc1ccn2c(C(=O)N/N=C\c3ccc4c(c3)OCO4)c(C)nc2c1	inconclusive: 11.7 µM [inhibitor, single point]	–
CCOC(=O)C1(Cc2ccccc2Cl)CCN(C(=O)c2cnccn2)CC1	active: 9.28 µM	–
Cc1ccc(OCC(=O)NNC(=O)C2CCN(c3ncnc4sc(C)c(C)c34)CC2)cc1	inconclusive: 0.117 µM [inhibitor, full curve, poor fit]	–
Cc1ccc(S(=O)(=O)N2CCCN(C(=O)c3cc4ccccc4[nH]3)CC2)cc1	active: 11.7 µM	–
COc1ccc(-c2csc(NC3=NCCCCC3)n2)cc1	inactive	–
CN1CCC(NC(=O)NC2CCCCC2)CC1	inconclusive: 9.28 µM [inhibitor, single point]	–
COc1cc(NC(=O)N[C@@H](Cc2ccccc2)C(=O)O)cc(OC)c1	inconclusive: 1.17 µM [inhibitor, partial curve, poor fit]	–
FC(F)(F)c1cccc(N2CCN(C3CC4CCC3C4)CC2)c1 (centres undefined)	inactive	–
CCOc1ccc(/C=N/NC(=O)c2cc3c(OC)cc(OC)cc3[nH]2)cc1OC	active: 0.928 µM	–
CCc1cc(C(=O)N=Nc2c(O)[nH]c3ccc([N+](=O)[O-])cc23)c2ccccc2n1	inconclusive: 11.7 µM [inhibitor, partial curve, poor fit]	–
CC(C)n1c(O)c(C2c3cc(Cl)ccc3Oc3[nH]c(=O)n(C(C)C)c(=O)c32)c(=O)[nH]c1=O (centres undefined)	inconclusive: 18.5 µM [inhibitor, single point]	–
Cc1c2c(nc3c(C(=O)NC4CCCC4)cnn13)CCCC2	inconclusive: 3.29 µM [inhibitor, partial curve, poor fit]	–
Cc1c(C2C(C#N)=C(N)N(c3cccc([N+](=O)[O-])c3)C3=C2C(=O)CCC3)cnn1C (centres undefined)	inactive	–
CCN(Cc1ccccc1)S(=O)(=O)c1cn(C)cn1	inconclusive: 18.5 µM [inhibitor, single point]	–
CCc1nc(N)c(C#N)c(-c2ccc(OC)c(OC)c2)c1C	inconclusive: 10.4 µM [inhibitor, partial curve, poor fit]	–
Cc1c(N(C(=O)CNC(=O)c2ccccc2)C2(C(=O)NC3CCCCC3)CCCCC2)c(=O)n(-c2ccccc2)n1C	inconclusive: 9.28 µM [inhibitor, partial curve, poor fit]	–
Cc1ccc(O)c(C(CC(=O)N2CCCC2)c2ccccc2)c1 (centres undefined)	active: 0.37 µM	–

Structure (SMILES)	Potency	activity change, negative = inhibition
CCOC(=O)C1(CC2CCCCO2)CCN(S(=O)(=O)c2ccsc2)CC1 (centres undefined)	inactive	–
S=C(Nc1ccccc1)N1CCCCCC1	inactive	–
Cc1ccc(C(=O)c2sc3c(c2N)c(=O)[nH]c(=O)n3CCc2ccccc2)cc1	active: 9.28 µM	–
O=C(NCc1ccccc1)N[C@@H](Cc1c[nH]c2ccccc12)C(=O)O	inactive	–
CCCc1nc2ccc(NC(=O)NCCC(=O)OCC)cc2c(=O)n1Cc1cccc(Cl)c1	inconclusive: 4.15 µM [inhibitor, partial curve, poor fit]	–
c1ccc2oc(-c3[nH]ncc3CN(Cc3ccncc3)CC3CCCO3)cc2c1 (centres undefined)	inconclusive: 18.5 µM [inhibitor, single point]	–
c1cncc(-c2nc(NCc3cccs3)c3ccccc3n2)c1	active: 13.1 µM	–
O=C1CC[C@@H](CN(Cc2ccccn2)Cc2nc(Cc3ccccc3)no2)N1	active: 16.5 µM	–
CC(C)Oc1nnnn1-c1ccccc1	inconclusive: 18.5 µM [inhibitor, single point]	–
CCC(Cc1ccccc1)NS(=O)(=O)c1c(C)nc2scc(C)n2c1=O (centres undefined)	inactive	–
O=C(O)CCS(=O)(=O)c1cc(Br)cc2c1N(C(=O)C1CC1)CC2	inconclusive: 3.7 µM [inhibitor, full curve, poor fit]	–
COc1ccc(/C=C/C(=O)c2ccc(C(=O)/C=C/c3ccc(OC)c(OC)c3)cc2)cc1OC	inconclusive: 5.86 µM [inhibitor, partial curve]	–
O=C(O)c1ccc(/C=N\Nc2ccc(S(=O)(=O)N3CCOCC3)cc2[N+](=O)[O-])cc1	inactive	–
COCCNC(=O)c1ccc(N2CC3CC(C2)c2cccc(=O)n2C3)c(NC(=O)c2ccc(F)cc2)c1 (centres undefined)	inconclusive: 13.1 µM [inhibitor, single point]	–
COc1ccc(OC)c(NC(=O)NNC(=O)COc2ccc(F)cc2F)c1	inactive	–
COc1ccc(C2=NN(C(=O)c3ccccc3)C(c3ccc(OC)c(OC)c3)C2)cc1OC (centres undefined)	inconclusive: 18.5 µM [inhibitor, single point]	–
COc1c(C)cccc1C(=O)NCc1ccc2c(c1)OCO2	inconclusive: 18.5 µM [inhibitor, single point]	–
COc1ccc(NC(=O)C2CCC(CNC(=O)[C@@H]3Cc4ccccc4CN3)CC2)cc1 (some centres undefined)	inconclusive: 11.7 µM [inhibitor, partial curve, poor fit]	–
O=C(Nc1ccncc1)c1cccc2ccccc12	inconclusive: 11.7 µM [inhibitor, single point]	–
C=CCN1C(=O)/C(=C/c2ccc(O)cc2)S/C1=N/c1nccs1	inconclusive: 18.5 µM [inhibitor, single point]	–
Cc1cccc(NC(=O)Cn2nnc(C(=O)NCc3cccs3)c2N)c1C	inconclusive: 0.117 µM [inhibitor, full curve, poor fit]	–
CCOC(=O)[C@@H]1[C@H]2COc3cc(OC)ccc3[C@@H]2N2C(=O)N(c3cccc(Cl)c3)C(=O)[C@@]12C	inconclusive: 0.0023 µM [inhibitor, full curve, poor fit]	–
O=C(c1ccc([N+](=O)[O-])cc1)N1CCC(Cc2ccccc2)CC1	inconclusive: 11.7 µM [inhibitor, single point]	–

Structure (SMILES)	Potency	activity change, negative = inhibition
COc1cc2[nH]c(=O)n(CCCC(=O)NCCc3ccccc3)c(=O)c2cc1OC	active: 5.22 µM	–
Cc1c(NC(=O)C(C)OC(=O)/C=C/c2ccccc2)c(=O)n(-c2ccccc2)n1C (centres undefined)	inactive	–
COc1ccc(NC(=O)NCc2ccncc2)cc1	inactive	–
Cc1ccc(-c2noc(=O)n2CC(=O)c2ccc(Cl)cc2)cc1	inactive	–
O=C(Cc1ccccc1)N1N=C(c2ccncc2)CC1(O)C(F)(F)F (centres undefined)	active: 13.1 µM	–
O=C(Nc1ccc2[nH]ncc2c1)c1ccccc1	inactive	–
COc1cc(-c2nc3ccccn3c2NCc2ccccc2)ccc1SC1CCCCC1	inconclusive: 2.33 µM [inhibitor, single point]	–
CC(C)(C)C1CCC(OC(=O)C[N+]2(C)CCCC2)CC1 (centres undefined)	inactive	–
Cc1ccc2ccc(C(Nc3cccc(C(F)(F)F)c3)c3cccnc3)c(O)c2n1 (centres undefined)	inconclusive: 18.5 µM [inhibitor, single point]	–
O=C1CC(N2CCN(c3ncccn3)CC2)C(=O)N1CCc1ccccc1 (centres undefined)	inconclusive: 10.4 µM [inhibitor, single point]	–
O=C1c2ccccc2NC(c2ccc([N+](=O)[O-])cc2)N1O (centres undefined)	inactive	–
O=C(c1ccc(Cl)c(S(=O)(=O)N2CCCCCC2)c1)N1CCN(c2ccc(O)cc2)CC1	inconclusive: 11.7 µM [inhibitor, partial curve, poor fit]	–
CC(=O)c1ccc(NC(=S)N2CCN(CCN3C(=O)c4cccc5cccc(c45)C3=O)CC2)cc1	inconclusive: 18.5 µM [inhibitor, single point]	–
CCN(CC(=O)Nc1ccc(C)c(S(=O)(=O)N(C)C)c1)Cc1ccccc1	inconclusive: 5.22 µM [inhibitor, partial curve, poor fit]	–
Cc1ccccc1NC(=O)C1CCN(S(=O)(=O)c2cccs2)CC1	–	inactive: 38.4% [at 5.75 µM]
Cc1nc2c(C(=O)NCc3ccc4c(c3)OCO4)c[nH]n2c(=O)c1Cl	inconclusive: 20.8 µM [inhibitor, single point]	–
CC(CNS(=O)(=O)c1ccccc1)Sc1nncn1C (centres undefined)	inconclusive: 1.04 µM [inhibitor, full curve, poor fit]	–
CN(CC(=O)Nc1ccc(S(=O)(=O)N(C)C)cc1)Cc1ccc(C(F)(F)F)cc1	inconclusive: 18.5 µM [inhibitor, partial curve, poor fit]	–
CCNC(=O)N1CCC(n2nccc2NC(=O)CCOc2ccccc2)CC1	inconclusive: 3.7 µM [inhibitor, full curve]	–
COc1ccc(CN2CCCC(CO)(Cc3ccc(F)cc3)C2)cc1C (centres undefined)	inconclusive: 14.7 µM [inhibitor, partial curve, poor fit]	–
O=C(Nc1cc(Cl)ccc1Oc1ccccc1)C1=COCCO1	inconclusive: 0.0029 µM [inhibitor, full curve, poor fit]	–
COC(=O)c1cc(S(=O)(=O)Nc2ccc(C)c(F)c2)c[nH]1	inconclusive: 11.7 µM [inhibitor, single point]	–
N#Cc1c(-c2ccc(F)cc2)cc(C2CC2)nc1SCC(=O)c1cccs1	inconclusive: 7.38 µM [inhibitor, partial curve]	–

Exported as a markdown table: entries from further up.

| Structure (SMILES) | Potency | activity change, negative = inhibition |
| --- | --- | --- |
| COc1ccc(NC(=O)NCc2ccncc2)cc1 | inactive | – |
| CCN(CC(=O)Nc1ccc(C)c(S(=O)(=O)N(C)C)c1)Cc1ccccc1 | inconclusive: 5.22 µM [inhibitor, partial curve, poor fit] | – |
| Cc1ccccc1NC(=O)C1CCN(S(=O)(=O)c2cccs2)CC1 | – | inactive: 38.4% [at 5.75 µM] |
